Construct, isoform or probe ends are uncertain for at least one entry.
Target: MhDREB2A-His (UniProt A0A4D6NVN0)
Experiment: EMSA
Conditions: excess unlabeled probe used as competitor; LightShift Chemiluminescent EMSA Kit (Thermo) per manufacturer; pH and temperature not stated; recombinant protein; protein details: His (pEASY-Blunt E2); label: 5'-biotin

## AAAGGAGGATATTTAATTTTAAAACCGACACTTGTCCAGACACCACTACT (double strand) [ProMhZAT10 DRE probe]
  binding result: binds

Reference: PMC10315272
